Assay results reported in patent US12616760B2 (priority 2020, dated 2026).
Square brackets hold non-standard residues; d marks the D form. * marks the point of attachment. Fmoc = O=C(OCC1c2ccccc2-c2ccccc21)*; Nle = CCCC[C@H](N)C(=O)O; azaGly = NNC(=O)O

Assay: general procedure: Fmoc solid-phase peptide synthesis; 2-chlorotrityl chloride resin; DIC/HOBt
Conditions: whole synthesis

cyclo(K[dL][Nle][dW]H[azaGly]) (SMILES CCCC[C@@H]1NC(=O)[C@@H](CC(C)C)NC(=O)[C@H](CCCCN)NC(=O)NNC(=O)[C@H](Cc2c[nH]cn2)NC(=O)[C@@H](Cc2c[nH]c3ccccc23)NC1=O)
isolated yield: 4%
final HPLC purity (214 nm): >99%
isolated mass (scale 0.3 mmol): 9.0 mg

Fmoc-azaGly-D-Trp-His-D-Ser-Lys-ODmab
crude HPLC purity (analytical RP-HPLC, UV 214 nm): 50% purity

Fmoc-D-Trp-His-D-Ser-Lys-ODmab
crude HPLC purity (analytical RP-HPLC, UV 214 nm, scale 0.32 mmol): approximately 70% purity

Fmoc-[dW]H[dS]K[azaGly][Nle]-OH
crude HPLC purity (analytical RP-HPLC, UV 214 nm): purity ˜85%

Fmoc-His-AsG-Lys-D-Leu-Nle-OH
crude LC-MS purity (analytical RP-HPLC, UV 214 nm): approximately 70% purity
